Assay results reported in PMC10256740.
No constants are given. Whether binding was seen depends on the method and setting. Binding seen in cells or lysates may run through a third protein. Some binding calls cover weakened binding; strength is not graded here.

Molecular target: T1, endogenous MBNL1 (mouse (endogenous in N2A)) (UniProt Q9JKP5)
T1 sequence: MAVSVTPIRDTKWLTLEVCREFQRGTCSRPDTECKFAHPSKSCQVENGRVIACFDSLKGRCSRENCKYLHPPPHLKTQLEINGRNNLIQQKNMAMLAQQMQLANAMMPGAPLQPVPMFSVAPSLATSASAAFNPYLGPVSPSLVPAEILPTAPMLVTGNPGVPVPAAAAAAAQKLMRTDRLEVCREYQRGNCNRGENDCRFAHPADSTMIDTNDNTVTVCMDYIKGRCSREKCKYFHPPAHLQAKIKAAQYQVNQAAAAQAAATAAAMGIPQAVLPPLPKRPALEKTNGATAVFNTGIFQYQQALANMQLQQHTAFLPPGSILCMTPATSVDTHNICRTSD
Test: co-IP; endogenous proteins, N2A lysate (1% NP-40, 0.1% sodium deoxycholate, 0.05% SDS, Benzonase); rabbit anti-MBNL1 or normal rabbit IgG on protein A Dynabeads overnight at 4 °C; high-salt washes (1 M NaCl); western blot

binding: binds
B1: endogenous Kif1c (protein, UniProt O35071 1-1100)
chain: MAGASVKVAVRVRPFNARETSQDAKCVVSMQGNTTSIINPKQSKDAPKSFTFDYSYWSHTSVEDPQFASQQQVYRDIGEEMLLHAFEGYNVCIFAYGQTGAGKSYTMMGRQEPGQQGIVPQLCEDLFSRVNVNQSAQLSYSVEVSYMEIYCERVRDLLNPKSRGSLRVREHPILGPYVQDLSKLAVTSYADIADLMDCGNKARTVAATNMNETSSRSHAVFTIVFTQRSHDQLTGLDSEKVSKISLVDLAGSERADSSGARGMRLKEGANINKSLTTLGKVISALADLQSKKRKSDFIPYRDSVLTWLLKENLGGNSRTAMIAALSPADINYEETLSTLRYADRTKQIRCNAVINEDPNARLIRELQEEVARLRDLLMAQGLSASALGGLKVEEGSPGGVLPPASSPPAPASPSSPPPHNGELEPSFSPSAEPQIGPEEAMERLQETEKIIAELNETWEEKLRKTEALRMEREALLAEMGVAVREDGGTVGVFSPKKTPHLVNLNEDPLMSECLLYHIKDGVTRVGQVDVDIKLTGQFIREQHCLFRSIPQPDGEVMVTLEPCEGAETYVNGKLVTEPLVLKSGNRIVMGKNHVFRFNHPEQARLERERGVPPPPGPPSEPVDWNFAQKELLEQQGIDIKLEMEKRLQDLENQYRKEKEEADLLLEQQRLYADSDSGEDSDKRSCEESWRLISSLREQLPPTTVQNIVKRCGLPSSGKRRAPRRVYQIPQRRRLQGKDPRWATMADLKMQAVKEICYEVALADFRHGRAEIEALAALKMRELCRTYGKPEGPGDAWRAVARDVWDTVGEEEGCGGGGGGSEEGARGAEVEDLRAHIDKLTGILQEVKLQNSSKDRELQALRDRMLRMERVIPLTQDLEDDNDESGLVTWAPPEGPEAVEETVPNDHSPAVRPTSPPLSSWERVSRLMEEDPAFRRGRLRWLKQEQLRLQGLQGAGGRGGGLRRPPARFVPPHDCKLRFPFKSNPQHRESWPGMGSGEAPAPQPPEEVTVPPAPPNRRPPSPRRPHRSRRNSLDGGSRSRGGGSTQPEPQHLRPQKHNGYPQQPQPSPAQRPGPRYPPYTTPPRMRRQRSAPDLKESGAAV
